Measured values reported in PubChem BioAssay AID188 (DTP/NCI, 2004).
Shown are survivors of the treated group in tumour-free mice. Survivors were counted at the toxicity check, usually on the fifth day, unless a day is given; later deaths do not show. Schedule codes are those of the source, taken here to give the interval after Q, in days (D) or hours (H), and the number of doses after X. Starred links: 1 amine or outer side, 2 acyl side, 3 side chain; linkers in the order of their positions; H or OH if unused. Positions of bridges follow the written chain, without caps; N, C: chain ends. Non-standard residues stand in square brackets, D forms with d. Residues, ends and D or L forms follow the SMILES beside them. Chains are numbered I, II in the order given. Actinocin(9to1) = Cc1c2oc3c(C)ccc(C(=O)[*:1])c3nc-2c(C(=O)[*:2])c(N)c1=O; aThr = C[C@H](O)[C@H](N)C(=O)O; NMeV = CN[C@H](C(=O)O)C(C)C; Sar = CNCC(=O)O

Test system: CD2F1 mice, nontumored, toxicity/survival
Experiment: NCI In Vivo Anticancer Drug Screen. Data for tumor model Nontumored Animals (Toxicity Test) in CD2F1 (CDF1) mice
[1] = dose: 8.0 mg/kg/injection, schedule: Q03HX024 (ip), vehicle: saline
[2] = dose: 16.0 mg/kg/injection, schedule: Q03HX016 (ip), vehicle: saline
[3] = dose: 16.0 mg/kg/injection, schedule: Q03HX024 (ip), vehicle: saline
[4] = dose: 32.0 mg/kg/injection, schedule: Q03HX016 (ip), vehicle: saline
[5] = dose: 32.0 mg/kg/injection, schedule: Q03HX024 (ip), vehicle: saline
[6] = dose: 64.0 mg/kg/injection, schedule: Q01DX009 (ip), vehicle: saline
[7] = dose: 64.0 mg/kg/injection, schedule: Q03HX016 (ip), vehicle: saline
[8] = dose: 64.0 mg/kg/injection, schedule: Q03HX024 (ip), vehicle: saline
[9] = dose: 64.0 mg/kg/injection, schedule: Q04DX003 (ip), vehicle: saline
[10] = dose: 128.0 mg/kg/injection, schedule: Q01DX009 (ip), vehicle: saline
[11] = dose: 128.0 mg/kg/injection, schedule: Q04DX003 (ip), vehicle: saline
[12] = dose: 128.0 mg/kg/injection, schedule: Q08DX002 (ip), vehicle: saline
[13] = dose: 256.0 mg/kg/injection, schedule: Q01DX009 (ip), vehicle: saline
[14] = dose: 256.0 mg/kg/injection, schedule: Q04DX003 (ip), vehicle: saline
[15] = dose: 256.0 mg/kg/injection, schedule: Q08DX002 (ip), vehicle: saline
[16] = dose: 512.0 mg/kg/injection, schedule: Q01DX009 (ip), vehicle: saline
[17] = dose: 512.0 mg/kg/injection, schedule: Q04DX003 (ip), vehicle: saline
[18] = dose: 512.0 mg/kg/injection, schedule: Q08DX002 (ip), vehicle: saline
[19] = dose: 1.0 mg/kg/injection, schedule: Q01DX001 (ip), vehicle: DMSO
[20] = dose: 10.0 mg/kg/injection, schedule: Q01DX001 (ip), vehicle: DMSO
[21] = dose: 100.0 mg/kg/injection, schedule: Q01DX001 (ip), vehicle: DMSO

Measured: survivor count

CC1C=NNC1=O (centres undefined)
8 of 8: dose: 8.0 mg/kg/injection, schedule: Q03HX016 (ip), vehicle: saline | [1] | [2] | [3] | [4] | [5] | [6] | [7] | [8] | [9] | dose: 64.0 mg/kg/injection, schedule: Q08DX002 (ip), vehicle: saline | [10] | [11] | [12] | [13] | [14] | [15] | [16] | [17] | [18]

COC1=CC=C2[C@@H]3Cc4ccc(OC)c5c4[C@]2(CCN3CCCl)C1O5 (some centres undefined)
2 of 2: [19] | [20] | [21]

COc1ccc2c(c1OC(C)=O)-c1cc(O)cc3c1C(C2)N(C(=O)CN(CCCl)CCCl)CC3 (centres undefined)
2 of 2: [19] | [20] | [21]

O=C(O)c1ccc(C(=O)O)c(C(=O)O)c1.[NH-]C1CCCCC1[NH-].[Pt+2]
8 of 10: dose: 60.0 mg/kg/injection, schedule: Q01DX001 (ip), vehicle: sodium bicarbonate
10 of 10: dose: 55.0 mg/kg/injection, schedule: Q01DX001 (ip), vehicle: sodium bicarbonate
5 of 10: dose: 75.0 mg/kg/injection, schedule: Q01DX001 (ip), vehicle: sodium bicarbonate
2 of 10: dose: 70.0 mg/kg/injection, schedule: Q01DX001 (ip), vehicle: sodium bicarbonate
7 of 10: dose: 65.0 mg/kg/injection, schedule: Q01DX001 (ip), vehicle: sodium bicarbonate
9 of 10: dose: 50.0 mg/kg/injection, schedule: Q01DX001 (ip), vehicle: sodium bicarbonate

CC(=O)Nc1ncc2ccccc2c1-c1ccc(N(CCOS(=O)(=O)c2ccc(C)cc2)CCOS(=O)(=O)c2ccc(C)cc2)cc1
2 of 2: dose: 1.0 mg/kg/injection, schedule: Q01DX001 (ip), vehicle: other | dose: 10.0 mg/kg/injection, schedule: Q01DX001 (ip), vehicle: other | dose: 100.0 mg/kg/injection, schedule: Q01DX001 (ip), vehicle: other

CCCCN(C)N=Nc1ccc(C(N)=O)cc1
10 of 10: dose: 19.0 mg/kg/injection, schedule: Q01DX009 (ip), vehicle: Klucel (hydroxypropylcellulose) (HPC) | dose: 29.0 mg/kg/injection, schedule: Q01DX009 (ip), vehicle: Klucel (hydroxypropylcellulose) (HPC) | dose: 44.0 mg/kg/injection, schedule: Q01DX009 (ip), vehicle: Klucel (hydroxypropylcellulose) (HPC) | dose: 67.0 mg/kg/injection, schedule: Q01DX009 (ip), vehicle: Klucel (hydroxypropylcellulose) (HPC) | dose: 100.0 mg/kg/injection, schedule: Q01DX009 (ip), vehicle: Klucel (hydroxypropylcellulose) (HPC)

CN(C)CC(=O)c1ccc(O)c(O)c1
2 of 8: dose: 1024.0 mg/kg/injection, schedule: Q01DX009 (ip), vehicle: saline
5 of 8: dose: 1024.0 mg/kg/injection, schedule: Q01DX001 (ip), vehicle: saline
8 of 8: [1] | dose: 16.0 mg/kg/injection, schedule: Q03HX008 (ip), vehicle: saline | [2] | [3] | dose: 32.0 mg/kg/injection, schedule: Q03HX008 (ip), vehicle: saline | [4] | [5] | [6] | dose: 64.0 mg/kg/injection, schedule: Q01DX009 (sc), vehicle: saline | dose: 64.0 mg/kg/injection, schedule: Q03HX008 (ip), vehicle: saline | [7] | [8] | [9] | dose: 128.0 mg/kg/injection, schedule: Q01DX001 (ip), vehicle: saline | dose: 128.0 mg/kg/injection, schedule: Q01DX001 (oral), vehicle: saline | dose: 128.0 mg/kg/injection, schedule: Q01DX001 (sc), vehicle: saline | [10] | dose: 128.0 mg/kg/injection, schedule: Q01DX009 (oral), vehicle: saline | dose: 128.0 mg/kg/injection, schedule: Q01DX009 (sc), vehicle: saline | dose: 128.0 mg/kg/injection, schedule: Q03HX008 (ip), vehicle: saline | dose: 128.0 mg/kg/injection, schedule: Q03HX016 (ip), vehicle: saline | [11] | [12] | dose: 256.0 mg/kg/injection, schedule: Q01DX001 (ip), vehicle: saline | dose: 256.0 mg/kg/injection, schedule: Q01DX001 (oral), vehicle: saline | dose: 256.0 mg/kg/injection, schedule: Q01DX001 (sc), vehicle: saline | [13] | dose: 256.0 mg/kg/injection, schedule: Q01DX009 (oral), vehicle: saline | dose: 256.0 mg/kg/injection, schedule: Q01DX009 (sc), vehicle: saline | [14] | [15] | dose: 512.0 mg/kg/injection, schedule: Q01DX001 (ip), vehicle: saline | dose: 512.0 mg/kg/injection, schedule: Q01DX001 (oral), vehicle: saline | dose: 512.0 mg/kg/injection, schedule: Q01DX001 (sc), vehicle: saline | [16] | dose: 512.0 mg/kg/injection, schedule: Q01DX009 (oral), vehicle: saline | dose: 512.0 mg/kg/injection, schedule: Q01DX009 (sc), vehicle: saline | [17] | [18] | dose: 1024.0 mg/kg/injection, schedule: Q01DX001 (oral), vehicle: saline | dose: 1024.0 mg/kg/injection, schedule: Q01DX001 (sc), vehicle: saline | dose: 1024.0 mg/kg/injection, schedule: Q01DX009 (oral), vehicle: saline
7 of 8: dose: 1024.0 mg/kg/injection, schedule: Q08DX002 (ip), vehicle: saline

CC(=O)N(C(C)=O)c1nc(Br)c2ccccc2c1-c1ccc([N+](=O)[O-])cc1
2 of 2: [19] | [20] | [21]

CC(=O)Nc1ccc(-c2c(N)ncc3ccccc23)cc1
2 of 2: [19] | [20] | [21]

Cc1c2oc3c(C)ccc(C(=O)N[C@@H]4C(=O)N[C@H](C(C)C)C(=O)N5CCC[C@H]5C(=O)N(C)CC(=O)N(C)[C@@H](C(C)C)C(=O)O[C@H]4C)c3nc-2c(C(=O)N[C@@H]2C(=O)N[C@H](C(C)C)C(=O)N3CCC[C@H]3C(=O)N(C)CC(=O)N(C)[C@@H](C(C)C)C(=O)O[C@H]2C)c(N)c1=O (I: [aThr][dV]P[Sar][NMeV] / II: [aThr][dV]P[Sar][NMeV]; ester I:1-I:C, II:1-II:C; linker I:N-II:N via Actinocin(9to1))
4 of 4: dose: 0.12 mg/kg/injection, schedule: Q04DX003 (ip), vehicle: saline | dose: 0.2 mg/kg/injection, schedule: Q04DX003 (ip), vehicle: saline | dose: 0.33 mg/kg/injection, schedule: Q04DX003 (ip), vehicle: saline
